Test system: HCV
Assay type: in vivo
Conditions: Tg mouse pretreated with 0.5 mg, then inoculated with HCV

CC(C)c1c(C(=O)Nc2ccccc2)c(-c2ccccc2)c(-c2ccc(F)cc2)n1CC[C@@H](O)C[C@@H](O)CC(=O)O [atorvastatin]
Endocytosis of HCV by hepatocytes (ISH for HCV RNA): increased endocytosis of HCV

Source: patent US20110229482A1, “Method of inhibiting infection by HCV, other flaviviridae viruses, and any other virus that complexes to low density lipoprotein or to very low density lipoprotein in blood by preventing viral entry into a cell” (priority 2000, published 2011)
